Reference: PubChem BioAssay AID588497 (NMMLSC, 2011)
The campaign covered roughly 360,000 compounds. About 780 (0.22%) were called active. The inconclusive results got no clear call from the source; some entries with a clear call stand among them for comparison. No stated cut-off is given here; in the data, active means inhibition above about 35% (passing the limit was not always enough); inconclusive means no clear call, values can overlap the other calls.

The compounds below were run on Botulinum neurotoxin type F light chain protease (Clostridium botulinum) (assay: BoNT/F light chain protease inhibitors, primary screen, biochemical, flow cytometry, MLPCN library (AID 588497; further: plate controls were buffer without enzyme for full effect and enzyme alone for no effect)). Conditions: Multiplex microsphere protease cleavage assay, at 10 µM, active compounds read high.

**Q.** Which inhibition does the source give for `Cc1ccc(C)c(NC(=S)c2ccccn2)c1` here?
**A.** The inhibition was inconclusive: -18.4%.

**Q.** `Cc1cccc(NC(=O)c2cccc(NC(=O)c3ccco3)c2)c1` was tested. Which inhibition did it give?
**A.** The inhibition was inconclusive: 2.1%.

**Q.** With `CN(C)Cc1c(O)ccc2c(=O)c(-c3ccccc3)c(C(F)(F)F)oc12` as the compound, how does the inhibition read?
**A.** The inhibition was inconclusive: 3.2%.

**Q.** `COc1ccc(CC(=O)NNC(=O)c2ccccn2)cc1` was tested. Which inhibition did it give?
**A.** Its inhibition is inconclusive: 12.5%.

**Q.** `Cc1ccc(Nc2nc(=O)c3cccnc3s2)c(Br)c1` was tested. Which inhibition did it give?
**A.** Its inhibition is inconclusive: 20.8%.

**Q.** How did the inhibition turn out when `Cc1ccc(S(=O)(=O)NN=Cc2ccccc2Cl)cc1` was run?
**A.** The inhibition was inactive: 0.4%.

**Q.** `CCOc1ccccc1C(=S)NC1CCCCC1` was tested. Which inhibition did it give?
**A.** The inhibition was inconclusive: 16.2%.

**Q.** With `Cc1ccc(OCCCCNC(C)c2ccccc2)c(C)c1` (configuration not stated) as the compound, how does the inhibition read?
**A.** The inhibition was inconclusive: 30.3%.

**Q.** `CCC1CCc2sc(C(=O)NCC(c3ccc(OC)cc3)N3CCCC3)cc2C1` (configuration not stated) was tested. Which inhibition did it give?
**A.** The inhibition was inconclusive: 14.1%.

**Q.** With `O=C(CSc1nnnn1-c1ccc(Cl)cc1)N1CCc2ccccc2C1` as the compound, how does the inhibition read?
**A.** Its inhibition is inactive: 3.3%.

**Q.** Which inhibition does the source give for `Cc1cc(Cl)cc2c(N=Nc3ccccc3C(=O)O)c(O)[nH]c12` here?
**A.** Its inhibition is inactive: -3.9%.

**Q.** For `CCOc1c(N2CC(C)OC(C)C2)c(=O)c1=O` (configuration not stated), which inhibition is on record?
**A.** Its inhibition is inconclusive: -4.5%.

**Q.** `O=C(N/N=C/c1ccccc1[N+](=O)[O-])c1ccc2nc[nH]c2c1` was tested. Which inhibition did it give?
**A.** The inhibition was active: 48.9%.

**Q.** Which inhibition does the source give for `CCOc1ccccc1N1CCN(C(=O)c2cccc(S(=O)(=O)N3CCOCC3)c2)CC1` here?
**A.** Its inhibition is inactive: -5%.

**Q.** With `CC(C)(C)C(=O)Nc1ccc(-c2csnn2)cc1` as the compound, how does the inhibition read?
**A.** Its inhibition is inconclusive: 26.5%.

**Q.** How did the inhibition turn out when `Cc1ccc2nc(-c3cc(-c4ccccc4)no3)cn2c1` was run?
**A.** Its inhibition is inconclusive: 25.3%.

**Q.** How did the inhibition turn out when `N=C1SCC(=O)N1c1ccc(Cl)cc1` was run?
**A.** Its inhibition is inconclusive: 43%.

**Q.** For `CCC(C)NC(=O)C1c2ccccc2Oc2ccccc21` (configuration not stated), which inhibition is on record?
**A.** Its inhibition is inconclusive: -23.9%.

**Q.** With `CC(C)Cn1c(C23CC4CC(CC(C4)C2)C3)n[nH]c1=S` as the compound, how does the inhibition read?
**A.** The inhibition was inconclusive: -13.7%.

**Q.** For `O=C(O)CCSC1CC(=O)N(c2ccccc2)C1=O` (configuration not stated), which inhibition is on record?
**A.** Its inhibition is inconclusive: 25.9%.

**Q.** With `Cc1onc(-c2ccccc2)c1C(=O)N=C(N)c1ccc(C(F)(F)F)cc1` as the compound, how does the inhibition read?
**A.** The inhibition was inconclusive: 47.9%.

**Q.** How did the inhibition turn out when `OCCN(CCO)CC(O)COc1ccc(Br)cc1` (configuration not stated) was run?
**A.** The inhibition was inconclusive: -26%.

**Q.** Which inhibition does the source give for `CC1(C)C(=O)OC(c2ccccc2)C(C)(C)C1=O` (configuration not stated) here?
**A.** The inhibition was inconclusive: -204%.

**Q.** `Cc1cc(C)c[n+](CC(=O)c2ccccc2)c1` was tested. Which inhibition did it give?
**A.** Its inhibition is inconclusive: -23.8%.

**Q.** `CC1(C)Oc2ccc3ccc(=O)oc3c2/C(=C/O)C1=O` was tested. Which inhibition did it give?
**A.** Its inhibition is inconclusive: -6.9%.

**Q.** `OCCN(CC#CC(O)(c1ccccc1)c1ccccc1)CCO` was tested. Which inhibition did it give?
**A.** The inhibition was inconclusive: -39.3%.

**Q.** For `COc1ccccc1C(=O)Nc1ccc2c(c1)nc(CN1CCN(C(C)=O)CC1)n2C`, which inhibition is on record?
**A.** Its inhibition is inconclusive: -10.6%.
